At least one compound was matched to its structure with a doubt left.
What was measured:
melanoma cells [1] = assay: transcriptome gene profiling in Vemurafenib-treated melanoma cells; type: cell-based, human
melanoma cells [2] = assay: cell-cycle effect on melanoma cells; type: cell-based, human

CCCS(=O)(=O)Nc1ccc(F)c(C(=O)c2c[nH]c3ncc(-c4ccc(Cl)cc4)cc23)c1F [Vemurafenib]
MerTK expression (melanoma cells [1]): upregulation of Mer tyrosine kinase (MerTK) | cell cycle (melanoma cells [2]): cell-cycle arrest
